Experimental data reported in patent US20040259833A1 (priority 1999, published 2004).
Some of these results come from one statement about several compounds together.

System: bacterial cells expressing an adenine DNA methyltransferase
Format: cell-based

“6-N-(diphenylborinic ester)-ethyl-9-(2-(2-(2-hydroxyethoxy)ethoxy)ethyl)-adenine [Compound 3d]” was tested, and the “estimated concentration that inhibited bacterial cell growth” value was less than 100 µM.

“6-N-(diphenylborinic ester)-ethyl-9-(2-(4-morpholinyl)-ethyl)-adenine [Compound 3b]” was tested, and the “estimated concentration that inhibited bacterial cell growth” value was less than 100 µM.

In the case of “6-N-(diphenylborinic ester)-ethyl-9-(3-(N-phthaloyl)-aminopropyl)-adenine [Compound 3c]”, the “estimated concentration that inhibited bacterial cell growth” value is reported as less than 100 µM.

In the case of “6-N-(diphenylborinic ester)-ethyl-9-(ethyl-2-acrylate)-methyl-adenine [Compound 3e]”, the “estimated concentration that inhibited bacterial cell growth” value is reported as less than 100 µM.

“6-N-(diphenylborinic ester)-ethyl-adenine [Compound 3a]” was tested, and the “estimated concentration that inhibited bacterial cell growth” value was less than 100 µM.
